Measured values published in PMC10896979.
Results are given in words; binding and its absence hold for the method and conditions named. For some assays here: Binding seen in cells or lysates may run through a third protein. Some results given as binding are weak or reduced against the parent protein; the word gives no strength. For some assays here: Where a sequence is shown, tags or fusion partners need not be part of it. Blank lines part the entries; values can stand above or below the binder they belong to.

Columns and labels:
[1] = target: T1, PalmD (endogenous, rat primary neurons) (rat (endogenous in rat primary neurons)) (UniProt Q4KM62); experiment: co-IP; endogenous proteins from rat primary cortical neurons lysed at DIV9; IP of Pdlim5 with blot of PalmD, and the inverse; Protein-A and Protein-G Dynabeads, 4°C
T1 sequence: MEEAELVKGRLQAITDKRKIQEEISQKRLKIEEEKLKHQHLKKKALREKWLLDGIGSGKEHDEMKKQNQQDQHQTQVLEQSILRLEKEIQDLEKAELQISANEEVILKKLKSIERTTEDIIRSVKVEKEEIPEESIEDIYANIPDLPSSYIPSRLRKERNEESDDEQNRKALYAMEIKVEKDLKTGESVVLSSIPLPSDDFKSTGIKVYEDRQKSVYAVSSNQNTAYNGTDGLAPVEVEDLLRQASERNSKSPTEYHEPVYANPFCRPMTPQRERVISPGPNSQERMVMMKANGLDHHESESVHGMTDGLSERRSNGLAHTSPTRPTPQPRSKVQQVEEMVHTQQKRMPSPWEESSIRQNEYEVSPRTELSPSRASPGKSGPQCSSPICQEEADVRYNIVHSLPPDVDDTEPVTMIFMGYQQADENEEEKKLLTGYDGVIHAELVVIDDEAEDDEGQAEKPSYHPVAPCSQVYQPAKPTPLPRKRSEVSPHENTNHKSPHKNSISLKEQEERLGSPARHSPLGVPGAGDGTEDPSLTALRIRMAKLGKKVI

[2] = target: T2, 6x Myc Pdlim5 full length (UniProt Q62920); experiment: co-IP; exogenous epitope-tagged constructs co-transfected in HEK293 cells, lysed 24-48 h later; Protein-A and Protein-G Dynabeads, 4°C
T2 sequence: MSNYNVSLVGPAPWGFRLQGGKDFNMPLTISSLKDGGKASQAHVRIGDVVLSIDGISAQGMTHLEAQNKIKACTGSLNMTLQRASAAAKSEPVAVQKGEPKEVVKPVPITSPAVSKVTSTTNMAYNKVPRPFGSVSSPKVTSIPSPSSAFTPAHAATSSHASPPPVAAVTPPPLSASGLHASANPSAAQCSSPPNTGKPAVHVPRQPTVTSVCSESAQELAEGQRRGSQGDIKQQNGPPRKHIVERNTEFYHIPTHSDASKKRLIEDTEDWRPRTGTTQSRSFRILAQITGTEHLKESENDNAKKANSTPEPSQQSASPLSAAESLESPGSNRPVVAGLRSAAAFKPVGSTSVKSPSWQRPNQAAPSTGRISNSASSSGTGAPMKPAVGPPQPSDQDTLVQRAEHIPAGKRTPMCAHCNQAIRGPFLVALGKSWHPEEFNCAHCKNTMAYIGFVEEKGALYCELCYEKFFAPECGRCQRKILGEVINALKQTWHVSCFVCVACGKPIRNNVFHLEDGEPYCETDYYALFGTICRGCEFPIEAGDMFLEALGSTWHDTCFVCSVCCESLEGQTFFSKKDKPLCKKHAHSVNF

GLS-Pdlim5 = target: T3, GLS-Pdlim5 (UniProt Q62920); experiment: Golgi co-relocalization assay (GLS assay); Pdlim5 directed to the Golgi by an N-terminal GLS of mTOR, partner co-expressed in HT-22 cells; fixed 24 h after transfection, immunostaining, confocal microscopy
T3 sequence: T2 sequence

[3] = target: T4, Pdlim5 (endogenous, rat primary neurons) (rat (endogenous in rat primary neurons)) (UniProt Q62920); experiment: proximity ligation; endogenous proteins in rat primary hippocampal neurons fixed at DIV4; Duolink PLA kit; puncta counted in processes
T4 sequence: T2 sequence

[4] = target: T4, Pdlim5 (endogenous, rat primary neurons) (rat (endogenous in rat primary neurons)); experiment: co-IP; endogenous proteins from rat primary cortical neurons lysed at DIV9; IP of Pdlim5 with blot of PalmD, and the inverse; Protein-A and Protein-G Dynabeads, 4°C

binding [1]: binds
B1: Pdlim5 (endogenous, rat primary neurons) (protein, UniProt Q62920 1-591)
chain: T2 sequence

binding [2]: binds
B2: PalmD-GFP (protein, UniProt Q9NP74 1-551)
chain: MEEAELVKGRLQAITDKRKIQEEISQKRLKIEEDKLKHQHLKKKALREKWLLDGISSGKEQEEMKKQNQQDQHQIQVLEQSILRLEKEIQDLEKAELQISTKEEAILKKLKSIERTTEDIIRSVKVEREERAEESIEDIYANIPDLPKSYIPSRLRKEINEEKEDDEQNRKALYAMEIKVEKDLKTGESTVLSSIPLPSDDFKGTGIKVYDDGQKSVYAVSSNHSAAYNGTDGLAPVEVEELLRQASERNSKSPTEYHEPVYANPFYRPTTPQRETVTPGPNFQERIKIKTNGLGIGVNESIHNMGNGLSEERGNNFNHISPIPPVPHPRSVIQQAEEKLHTPQKRLMTPWEESNVMQDKDAPSPKPRLSPRETIFGKSEHQNSSPTCQEDEEDVRYNIVHSLPPDINDTEPVTMIFMGYQQAEDSEEDKKFLTGYDGIIHAELVVIDDEEEEDEGEAEKPSYHPIAPHSQVYQPAKPTPLPRKRSEASPHENTNHKSPHKNSISLKEQEESLGSPVHHSPFDAQTTGDGTEDPSLTALRMRMAKLGKKVI

binding (GLS-Pdlim5): binds
B3: PalmD (expressed in HT-22 cells for the Golgi co-relocalization assay) (protein, UniProt Q9NP74 1-551)
chain: B2 chain

binding [3]: binds
binding [4]: binds
B4: PalmD (endogenous, rat primary neurons) (protein, UniProt Q4KM62 1-551)
chain: T1 sequence
